Experimental data as given in PubChem BioAssay AID1259354 (Paczesny and Yang Labs, IUPUI and University of Michigan, 2018).
The campaign covered roughly 78,000 compounds. About 1,800 (2.3%) were called active. The inconclusive results got no clear call from the source; some entries with a clear call stand among them for comparison. Rule as the data show it: active = inhibition above about 30%; inconclusive = mostly about 10% to 28%; inactive = weaker than that.

Sequences of proteins named here, by UniProt entry; tags and fusion partners are left off. A change or cut given only in a name is not applied to a line headed by its entry.
UniProt Q01638: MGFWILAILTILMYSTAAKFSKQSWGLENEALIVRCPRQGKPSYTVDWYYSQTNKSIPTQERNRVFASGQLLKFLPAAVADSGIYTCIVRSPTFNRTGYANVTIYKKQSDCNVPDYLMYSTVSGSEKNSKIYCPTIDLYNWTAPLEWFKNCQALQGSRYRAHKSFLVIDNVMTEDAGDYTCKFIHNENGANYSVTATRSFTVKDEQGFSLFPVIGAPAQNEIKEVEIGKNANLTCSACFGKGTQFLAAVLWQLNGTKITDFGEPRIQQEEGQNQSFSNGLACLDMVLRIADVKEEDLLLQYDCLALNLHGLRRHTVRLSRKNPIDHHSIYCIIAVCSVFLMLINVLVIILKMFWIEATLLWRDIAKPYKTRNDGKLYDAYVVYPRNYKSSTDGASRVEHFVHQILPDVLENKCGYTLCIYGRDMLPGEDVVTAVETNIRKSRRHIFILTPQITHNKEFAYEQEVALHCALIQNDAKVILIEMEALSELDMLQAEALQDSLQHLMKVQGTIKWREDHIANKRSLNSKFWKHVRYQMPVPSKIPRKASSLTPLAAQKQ

target: Interleukin-1 receptor-like 1 (Homo sapiens) (UniProt Q01638); assay: blocks human ST2 binding to IL-33, primary screen, biochemical, AlphaLISA (AID 1259354); conditions: AlphaLISA ST2-Fc/biotin-IL-33 interaction, 1 h; at 17 µM, active compounds read high

| SMILES | inhibition |
| --- | --- |
| Cn1ccn2ncc(C(=O)NC3CCCN(C(=O)c4cccs4)C3)c12 (stereo not drawn) | inactive |
| COc1cc(OC)c(OC)cc1CN1CCN(Cc2ccc(C)o2)C(CCO)C1 (stereo not drawn) | inconclusive: 20% |
| CN1C[C@@H](NC(=O)c2ccc3c(c2)OCO3)C[C@H]1c1nc(-c2ccc3ccccc3c2)no1 | inconclusive: 15% |
| COc1ccc(-n2c(=O)c3c4c(sc3n3c(C)nnc23)COC(C(C)C)C4)cc1 (stereo not drawn) | inconclusive: 11% |
| COC(=O)C1C(=O)NC(SC)=C(C#N)C1c1ccc(Cl)cc1 (stereo not drawn) | inconclusive: 12% |
| CCC(=O)Nc1nonc1-c1nc2ccccc2n1Cc1ccccc1C | inconclusive: 13% |
| O=C(Nc1ccc(Cl)cc1)N1Cc2[nH]cnc2C[C@H]1c1nc(-c2ccncc2)no1 | inconclusive: 25% |
| Cc1ccc(NC(=O)C(=O)NCCN2CCN(C(=O)c3ccc(Cl)cc3Cl)CC2)cc1C | inconclusive: 13% |
| COc1ccc2c(c1)CCC1C2CC[C@@]2(C)C1CC[C@@H]2NCCCCCCN1C(=O)C=CC1=O (stereo partly drawn) | active: 46% |
| Cc1cccnc1CN(Cc1ccccc1)C(=O)CSc1nnc(N)s1 | inconclusive: 20% |
| O=C1c2ccccc2C(=O)c2cc(S(=O)(=O)Nc3cccc(C(F)(F)F)c3)ccc21 | inconclusive: 24% |
| NC(=O)c1ccc(-c2nnc(Nc3ccc(C(=O)Nc4ccccc4)cc3)c3ccccc23)cc1 | inconclusive: 23% |
| COc1cc([N+](=O)[O-])ccc1N=Cc1nc(-c2ccc(Br)cc2)oc1O | inactive |
| O=C(O)C[C@@H]1CCN(C(=O)Cc2ccccc2)C[C@@H]1CCN1CCOCC1 | inconclusive: 11% |
| CCn1cc(CN(C)C(C)C(=O)N(C)C)cn1 (stereo not drawn) | inconclusive: 15% |
| Cc1cc(N2CC(C)CC(C)C2)nc2ccc(NC(=O)CCC(=O)N3CCCCCC3)cc12 (stereo not drawn) | inconclusive: 12% |
| COC1=CC(=O)OC(CCc2ccc(OC)c(OC)c2)C1 (stereo not drawn) | inconclusive: 17% |
| O=[N+]([O-])c1c(Sc2ncnc3nc[nH]c23)ccc2nsnc12 | inconclusive: 19% |
| O=C(NCc1ccccc1)NC1(C(F)(F)F)Oc2ccc(Cl)cc2O1 (stereo not drawn) | inactive |
| CC(=O)Nc1nnc(-c2ccccc2SCc2ccccc2)s1 | inactive |

In the list so far, eleven have four or more nitrogen atoms.

| SMILES | inhibition |
| --- | --- |
| Cn1ccn2ncc(C(=O)NC3CCCN(C(=O)c4cccs4)C3)c12 (stereo not drawn) | inactive |
| CN1C[C@@H](NC(=O)c2ccc3c(c2)OCO3)C[C@H]1c1nc(-c2ccc3ccccc3c2)no1 | inconclusive: 15% |
| COc1ccc(-n2c(=O)c3c4c(sc3n3c(C)nnc23)COC(C(C)C)C4)cc1 (stereo not drawn) | inconclusive: 11% |
| CCC(=O)Nc1nonc1-c1nc2ccccc2n1Cc1ccccc1C | inconclusive: 13% |
| O=C(Nc1ccc(Cl)cc1)N1Cc2[nH]cnc2C[C@H]1c1nc(-c2ccncc2)no1 | inconclusive: 25% |
| Cc1ccc(NC(=O)C(=O)NCCN2CCN(C(=O)c3ccc(Cl)cc3Cl)CC2)cc1C | inconclusive: 13% |
| Cc1cccnc1CN(Cc1ccccc1)C(=O)CSc1nnc(N)s1 | inconclusive: 20% |
| NC(=O)c1ccc(-c2nnc(Nc3ccc(C(=O)Nc4ccccc4)cc3)c3ccccc23)cc1 | inconclusive: 23% |
| CCn1cc(CN(C)C(C)C(=O)N(C)C)cn1 (stereo not drawn) | inconclusive: 15% |
| Cc1cc(N2CC(C)CC(C)C2)nc2ccc(NC(=O)CCC(=O)N3CCCCCC3)cc12 (stereo not drawn) | inconclusive: 12% |
| O=[N+]([O-])c1c(Sc2ncnc3nc[nH]c23)ccc2nsnc12 | inconclusive: 19% |

Copied from the list.
COC(=O)C1C(=O)NC(SC)=C(C#N)C1c1ccc(Cl)cc1 (stereo not drawn) | inhibition: inconclusive: 12%
O=C(O)C[C@@H]1CCN(C(=O)Cc2ccccc2)C[C@@H]1CCN1CCOCC1 | inhibition: inconclusive: 11%

The results go on:

| SMILES | inhibition |
| --- | --- |
| O=S(=O)(c1ccc(Br)s1)N1CCN(c2ccc(F)cc2)CC1 | inconclusive: 10% |
| CC(C)(O)C#CC1(C)CCCC(C)(C)O1 (stereo not drawn) | inconclusive: 11% |
| COc1ccc(C2=NN(CC(=O)N3CCC4(CC3)OCCO4)C(=O)CC2)cc1 | inconclusive: 16% |
| COC(=O)c1cccc(C(=O)Nc2cnc3ccccc3c2)n1 | inactive |
| COc1ccc(NC(=O)N2Cc3[nH]cnc3C[C@H]2c2nc(-c3ccc(Cl)cc3)no2)cc1 | inconclusive: 16% |
| Cc1nn(Cc2ccccc2)c(C)c1[C@@H]1C=C[C@@H](NC(=O)c2ccco2)C1 | inconclusive: 10% |
| O=C(Nc1ccc(-c2ccc(O)cc2)cc1)c1ccccc1 | inactive |
| Cc1ccc(NC(=O)Cn2ncc3c(=O)oc4ccccc4c32)c(Br)c1 | inactive |
| COC(=O)c1ccc2c(c1)N(Cc1ccccc1F)C(=O)CS2=O (stereo not drawn) | inconclusive: 17% |
| CCCc1cc(C(=O)Nc2sc3c(c2C#N)CCCC3)no1 | inconclusive: 13% |
| O=C(O)c1ccccc1SC1CC(=O)N(c2ccc(OC(F)F)cc2)C1=O (stereo not drawn) | inactive |
| CN1CCC(Cc2noc(-c3ccc(Cn4cnnn4)cc3)n2)CC1 | inconclusive: 13% |
| COCCN1C(=O)CC(CC(=O)N2CCCC(c3nc4ccccc4[nH]3)C2)(c2ccccc2F)C1=O (stereo not drawn) | inactive |
| Cc1ccc(NCN2C(=O)S/C(=C/c3cccc(F)c3)C2=O)cc1 | inconclusive: 16% |
| CC(C)c1cc(C2CCCN2C(=O)c2cnn3c2CCCC3)no1 (stereo not drawn) | active: 32% |
| COc1cccc(NC(=O)CN2C(=O)CCc3cc(S(=O)(=O)N4CCCC4)ccc32)c1 | inactive |
| Cc1cccc(NC(=O)C2(c3ccccc3)CC2(Cl)Cl)c1C (stereo not drawn) | inactive |
| Cc1ccccc1Nc1c(-c2ccco2)nc2c(C)cccn12 | inconclusive: 21% |
| CN(Cc1ccccc1)[C@@H]1[C@H](O)[C@H](CO)O[C@@H]1CNC(=O)C1CCCC1 | inconclusive: 13% |
| COC(=O)C1=C(C)NC2=C(C(=O)CC(c3cccs3)C2)C1c1ccc(C)o1 (stereo not drawn) | inconclusive: 12% |

| SMILES | inhibition |
| --- | --- |
| COc1cccc(N2CCN(C3CCCC(C)C3)CC2)c1 (stereo not drawn) | inconclusive: 18% |
| COc1ccc(-n2nc(C(=O)N3CCCC3)c3c4ccccc4n(C)c3c2=O)cc1Cl | inactive |
| CCN(c1ccccc1)S(=O)(=O)c1ccc(OC)c(OC)c1 | inactive |
| N#Cc1ccccc1COc1ccc(/C=C2\SC(N)=NC2=O)cc1 | inactive |
| CC(C)(C)c1ccc(NC(=O)O[C@@H]2CO[C@H]3[C@@H]2OC[C@@H]3Nc2nccc(-c3ccccc3)n2)cc1 | inactive |
| CC(C)(C)n1nc2c(c1NC(=O)c1ccc(Cl)cc1Cl)CSC2 | inconclusive: 14% |
| NC(=O)c1c(NC(=O)C23CC4CC(CC(C4)C2)C3)sc2c1CCCC2 | inconclusive: 15% |
| O=[N+]([O-])c1ccc(N=Cc2ccc(Br)c([N+](=O)[O-])c2)c(O)c1 | inconclusive: 26% |
| O=C(N1CCCCCC1)C1(S(=O)(=O)c2ccc(Cl)cc2)CC1 | inconclusive: 26% |
| Cc1nonc1C(=O)N1CCC(N2CCCC(C(=O)N3CCCC3)C2)CC1 (stereo not drawn) | inconclusive: 14% |
| C=CCOc1ccc(C2C(C#N)=C(N)OC(C)=C2C(C)=O)cc1 (stereo not drawn) | inconclusive: 16% |
| COC(=O)[C@H](NC(=O)c1cnn2c1CCCC2)c1ccc(O)cc1 | inconclusive: 14% |
| O=C(Nc1ccc(-c2nc3ccccc3o2)c(O)c1)c1ccc(Br)cc1 | inconclusive: 10% |
| CCOC(=O)CC(=O)CSc1nnc2sc3ccccc3n12 | inconclusive: 16% |
| COC(=O)c1ccc(-c2noc(CN3CCCCC3c3nccs3)n2)cc1 (stereo not drawn) | inactive |
| COC(=O)c1[nH]ncc1CN1CCC(N2CCCC2=O)CC1 | inactive |
| CCc1ccccc1NC(=O)c1ccc([N+](=O)[O-])cc1 | inactive |
| CC1=C[C@@H](CNCCN(C)C)[C@H](C(C)C)C[C@H]1Cc1nnc(C)o1 | inconclusive: 25% |
